Measurements from PMC10193809, “A small protein coded within the mitochondrial canonical gene nd4 regulates mitochondrial bioenergetics” (BMC Biology, 2023).
No constants are given. Whether binding was seen depends on the method and setting. Binding seen in cells or lysates may run through a third protein. Here binding means that the protein was enriched with, or labelled near, the bait; the list need not be complete. For some assays here: Sequences can lack the tags named with a protein.

The chains behind the UniProt entries cited, without tags or fusion partners. Residues count along the entry.
UniProt Q07021, residues 74-282: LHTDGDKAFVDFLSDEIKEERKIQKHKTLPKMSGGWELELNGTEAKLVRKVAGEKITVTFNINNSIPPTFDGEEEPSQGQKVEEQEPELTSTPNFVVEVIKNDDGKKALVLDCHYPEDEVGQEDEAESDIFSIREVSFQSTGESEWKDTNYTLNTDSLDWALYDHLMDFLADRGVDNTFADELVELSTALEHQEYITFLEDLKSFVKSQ

Legend:
[1] = biological target: T1, GST-MTALTND4 (human); assay: affinity purification with mass spectrometry; GST-MTALTND4 pre-coupled to glutathione sepharose beads (10 µg) with 1 ml pre-cleared HeLa or HEK-293T lysate, 4 °C overnight, 6 washes; mass spectrometry; only the target purified
T1 sequence: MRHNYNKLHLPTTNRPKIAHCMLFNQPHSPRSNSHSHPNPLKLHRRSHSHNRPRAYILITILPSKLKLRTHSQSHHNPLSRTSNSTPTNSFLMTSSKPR

[2] = biological target: T2, endogenous MTALTND4 (human (endogenous in HeLa)); assay: affinity purification with mass spectrometry; immunoprecipitation from HeLa cell lysates (10 mM HEPES, 150 mM NaCl, Triton X-100) with rabbit anti-MTALTND4 and protein A agarose, 4 °C overnight; pre-immune serum as control; mass spectrometry
T2 sequence: T1 sequence

For “complement component 1q subcomponent binding protein (C1qbp) (from UniProt Q07021 74-282)”, the binding [1] was “binds” and the binding [2] was “binds”.
